According to US20160305970A1, “CELL LINES AND METHODS FOR MAKING AND USING THEM” (Chromocell Corporation, priority 2008, published 2016):
Read-outs that look alike come from different tables or passages of the source. At least one peptide structure holds a part that was inferred or is arguable (an end, a ring closure or a residue). Where a SMILES comes first, the peptide text is derived from it. Bridges are numbered along the chain shown (N, C = ends).

Amino acid sequences for entries named in this document (tags omitted). Residues count along the entry.
UniProt P25092, 24-1073 F281L: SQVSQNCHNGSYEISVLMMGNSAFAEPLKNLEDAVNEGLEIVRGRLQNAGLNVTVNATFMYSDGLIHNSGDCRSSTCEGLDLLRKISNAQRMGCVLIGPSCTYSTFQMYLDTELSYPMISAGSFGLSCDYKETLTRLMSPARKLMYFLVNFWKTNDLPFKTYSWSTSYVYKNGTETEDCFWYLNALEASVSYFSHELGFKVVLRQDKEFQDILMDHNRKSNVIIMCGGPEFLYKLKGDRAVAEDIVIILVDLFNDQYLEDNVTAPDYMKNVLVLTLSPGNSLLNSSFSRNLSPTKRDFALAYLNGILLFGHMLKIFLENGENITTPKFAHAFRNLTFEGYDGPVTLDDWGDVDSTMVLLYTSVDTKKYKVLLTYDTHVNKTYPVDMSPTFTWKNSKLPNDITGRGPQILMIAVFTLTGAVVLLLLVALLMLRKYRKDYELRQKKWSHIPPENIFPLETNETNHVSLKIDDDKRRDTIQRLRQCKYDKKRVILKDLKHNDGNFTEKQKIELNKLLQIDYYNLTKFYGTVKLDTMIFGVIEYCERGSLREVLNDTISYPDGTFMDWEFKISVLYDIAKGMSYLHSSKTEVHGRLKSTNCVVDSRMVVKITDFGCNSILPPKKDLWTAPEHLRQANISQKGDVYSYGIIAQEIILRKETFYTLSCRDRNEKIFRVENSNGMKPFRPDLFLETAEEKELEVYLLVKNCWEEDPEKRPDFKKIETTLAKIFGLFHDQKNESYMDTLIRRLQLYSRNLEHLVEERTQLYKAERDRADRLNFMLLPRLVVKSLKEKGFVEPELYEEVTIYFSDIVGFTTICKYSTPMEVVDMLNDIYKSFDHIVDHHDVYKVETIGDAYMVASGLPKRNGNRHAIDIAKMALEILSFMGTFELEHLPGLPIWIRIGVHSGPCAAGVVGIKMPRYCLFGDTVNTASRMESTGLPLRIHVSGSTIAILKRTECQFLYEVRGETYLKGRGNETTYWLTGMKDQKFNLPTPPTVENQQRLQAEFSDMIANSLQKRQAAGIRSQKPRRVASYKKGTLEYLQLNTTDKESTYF

Columns and labels:
[1] = molecular target: T1, human GC-C (Homo sapiens, UniProt P25092, F281L); assay: cGMP competitive ELISA / Direct Cyclic GMP Enzyme Immunoassay in GC-C-expressing 293T cell line; assay type: cell-based
T1 construct: expressed in transfected cells

[2] = molecular target: T1, human GC-C; details: previously reported in other cell lines (Forte et al. 1999); cited from earlier work

CC[C@H](C)[C@@H]1NC(=O)[C@H](CCC(=O)O)NC(=O)[C@@H](NC(=O)[C@@H](NC(=O)CNC(=O)[C@@H]2CCCN2)[C@@H](C)O)CSSC[C@@H]2NC(=O)[C@H](C)NC(=O)[C@H](C)NC(=O)[C@H](Cc3ccc(O)cc3)NC(=O)[C@H](C)NC(=O)[C@H](CSSC[C@@H](C(=O)O)NC(=O)CNC(=O)[C@H]([C@@H](C)O)NC2=O)NC1=O [guanylin] (H-PGTCEICAYAACTGC-OH; disulfide 4-12, 7-15 (inferred); N-terminus and C-terminus assumed)
ELISA absorbance (cGMP levels) ([1]; cell lysate of GC-C-expressing cell line treated with 100 nM): Reduction in absorbance (corresponding to increased cGMP levels) | level of cGMP ([1]; produced GC-C-expressing cell line, low concentrations of guanylin): 6 pmol/mL | level of cGMP [2]: 3.5 pmol/mL
